Test system: receptors for cholecystokinin (CCK)
Assay: storage phosphor autoradiography, binding of [125I]BH-CCK-8 to human pancreatic tissue sections
Conditions: result in words

['251]BH-CCK-8: radioligand, specific activity 2200 Ci mmol-1, purchased from New England Nuclear
specific binding to tumour-free human pancreata: diffusely distributed through the tissue sections of tumour-free pancreata
